Measured values reported in publication PMC10920091.

Chains of the proteins cited; added tags and fusions are not shown. Lines headed by an entry give the natural chain unless they say otherwise; changes in a name come on top. A line that says so, or that is headed by a name, gives the form on record, which may keep a tag or linker.
PDE4D7-VSV (cAMP-specific 3',5'-cyclic phosphodiesterase 4D isoform 7, VSV-tagged) (Q08499, form named): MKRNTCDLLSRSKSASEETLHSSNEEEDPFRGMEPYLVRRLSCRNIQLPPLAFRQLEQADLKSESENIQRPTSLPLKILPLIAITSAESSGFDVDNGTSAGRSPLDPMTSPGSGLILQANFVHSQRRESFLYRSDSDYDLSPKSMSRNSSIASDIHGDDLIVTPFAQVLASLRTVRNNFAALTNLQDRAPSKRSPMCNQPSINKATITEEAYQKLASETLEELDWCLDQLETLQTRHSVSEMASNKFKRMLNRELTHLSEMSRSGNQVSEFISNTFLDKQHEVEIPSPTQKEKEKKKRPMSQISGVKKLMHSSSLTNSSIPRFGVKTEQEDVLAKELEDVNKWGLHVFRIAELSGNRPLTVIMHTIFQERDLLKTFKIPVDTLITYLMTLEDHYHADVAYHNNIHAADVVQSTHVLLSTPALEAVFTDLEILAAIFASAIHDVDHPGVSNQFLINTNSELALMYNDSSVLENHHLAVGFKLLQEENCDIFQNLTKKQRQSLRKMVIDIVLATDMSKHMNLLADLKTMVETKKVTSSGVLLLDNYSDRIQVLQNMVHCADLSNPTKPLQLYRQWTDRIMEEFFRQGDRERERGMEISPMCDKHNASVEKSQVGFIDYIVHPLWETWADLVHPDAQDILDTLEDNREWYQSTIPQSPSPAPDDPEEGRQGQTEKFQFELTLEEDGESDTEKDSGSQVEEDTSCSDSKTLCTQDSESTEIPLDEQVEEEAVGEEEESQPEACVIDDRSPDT
UniProt P11142: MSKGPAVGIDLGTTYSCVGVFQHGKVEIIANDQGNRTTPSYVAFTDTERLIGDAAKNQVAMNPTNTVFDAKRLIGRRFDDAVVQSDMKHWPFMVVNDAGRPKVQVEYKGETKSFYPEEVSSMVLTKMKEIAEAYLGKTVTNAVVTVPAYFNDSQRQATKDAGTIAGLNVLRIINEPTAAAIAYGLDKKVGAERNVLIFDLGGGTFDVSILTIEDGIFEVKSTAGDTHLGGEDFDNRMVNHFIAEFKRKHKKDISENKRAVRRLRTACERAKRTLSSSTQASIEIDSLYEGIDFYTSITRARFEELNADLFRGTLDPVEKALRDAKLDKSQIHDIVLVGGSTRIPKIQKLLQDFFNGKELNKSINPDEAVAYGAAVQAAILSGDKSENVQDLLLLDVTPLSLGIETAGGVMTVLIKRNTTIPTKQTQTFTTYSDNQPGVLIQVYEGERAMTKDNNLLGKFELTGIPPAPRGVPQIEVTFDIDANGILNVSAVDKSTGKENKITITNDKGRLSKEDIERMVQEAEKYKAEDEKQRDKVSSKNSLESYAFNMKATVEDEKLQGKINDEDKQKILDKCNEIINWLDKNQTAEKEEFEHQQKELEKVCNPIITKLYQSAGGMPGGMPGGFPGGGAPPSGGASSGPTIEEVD

B1: octamer-binding protein (NONO) (protein, UniProt Q15233 1-471)
chain: MQSNKTFNLEKQNHTPRKHHQHHHQQQHHQQQQQQPPPPPIPANGQQASSQNEGLTIDLKNFRKPGEKTFTQRSRLFVGNLPPDITEEEMRKLFEKYGKAGEVFIHKDKGFGFIRLETRTLAEIAKVELDNMPLRGKQLRVRFACHSASLTVRNLPQYVSNELLEEAFSVFGQVERAVVIVDDRGRPSGKGIVEFSGKPAARKALDRCSEGSFLLTTFPRPVTVEPMDQLDDEEGLPEKLVIKNQQFHKEREQPPRFAQPGSFEYEYAMRWKALIEMEKQQQDQVDRNIKEAREKLEMEMEAARHEHQVMLMRQDLMRRQEELRRMEELHNQEVQKRKQLELRQEEERRRREEEMRRQQEEMMRRQQEGFKGTFPDAREQEIRMGQMAMGGAMGINNRGAMPPAPVPAGTPAPPGPATMMPDGTLGLTPPTTERFGQAATMEGIGAIGGTPPAFNRAAPGAEFAPNKRRRY

What follows are molecules tested against PDE4D7-VSV (cAMP-specific 3',5'-cyclic phosphodiesterase 4D isoform 7, VSV-tagged) (human) (UniProt Q08499) (assay: affinity purification with mass spectrometry; HEK293 lysate overexpressing PDE4D7-VSV precipitated with VSV-agarose beads (control vector and FLAG-agarose beads as controls); Coomassie-stained bands excised and analysed by mass spectrometry).

Molecule | binding
endogenous DHX9 (ATP-dependant RNA helicase A) (from UniProt Q08211-1 1-1270) | binds
heat shock cognate 71 kDa protein (HSPA8) (from UniProt P11142 1-646) | binds
B1 | binds

No constants are given. Whether binding was seen depends on the method and setting. In cells and extracts the contact can be indirect. These calls come from enrichment with a bait or labelling near it, and not all partners need be listed.
